In the supplement of paper PMC6411743:
± gives the standard deviation of the averaged measurements. This is a selection; strong and weak results do not stand in their true shares. Most entries show no effect beyond the scatter of the controls.

Sequences of proteins named here, by UniProt entry; tags and fusion partners are left off. A change or cut given only in a name is not applied to a line headed by its entry.
UniProt Q9ULH0: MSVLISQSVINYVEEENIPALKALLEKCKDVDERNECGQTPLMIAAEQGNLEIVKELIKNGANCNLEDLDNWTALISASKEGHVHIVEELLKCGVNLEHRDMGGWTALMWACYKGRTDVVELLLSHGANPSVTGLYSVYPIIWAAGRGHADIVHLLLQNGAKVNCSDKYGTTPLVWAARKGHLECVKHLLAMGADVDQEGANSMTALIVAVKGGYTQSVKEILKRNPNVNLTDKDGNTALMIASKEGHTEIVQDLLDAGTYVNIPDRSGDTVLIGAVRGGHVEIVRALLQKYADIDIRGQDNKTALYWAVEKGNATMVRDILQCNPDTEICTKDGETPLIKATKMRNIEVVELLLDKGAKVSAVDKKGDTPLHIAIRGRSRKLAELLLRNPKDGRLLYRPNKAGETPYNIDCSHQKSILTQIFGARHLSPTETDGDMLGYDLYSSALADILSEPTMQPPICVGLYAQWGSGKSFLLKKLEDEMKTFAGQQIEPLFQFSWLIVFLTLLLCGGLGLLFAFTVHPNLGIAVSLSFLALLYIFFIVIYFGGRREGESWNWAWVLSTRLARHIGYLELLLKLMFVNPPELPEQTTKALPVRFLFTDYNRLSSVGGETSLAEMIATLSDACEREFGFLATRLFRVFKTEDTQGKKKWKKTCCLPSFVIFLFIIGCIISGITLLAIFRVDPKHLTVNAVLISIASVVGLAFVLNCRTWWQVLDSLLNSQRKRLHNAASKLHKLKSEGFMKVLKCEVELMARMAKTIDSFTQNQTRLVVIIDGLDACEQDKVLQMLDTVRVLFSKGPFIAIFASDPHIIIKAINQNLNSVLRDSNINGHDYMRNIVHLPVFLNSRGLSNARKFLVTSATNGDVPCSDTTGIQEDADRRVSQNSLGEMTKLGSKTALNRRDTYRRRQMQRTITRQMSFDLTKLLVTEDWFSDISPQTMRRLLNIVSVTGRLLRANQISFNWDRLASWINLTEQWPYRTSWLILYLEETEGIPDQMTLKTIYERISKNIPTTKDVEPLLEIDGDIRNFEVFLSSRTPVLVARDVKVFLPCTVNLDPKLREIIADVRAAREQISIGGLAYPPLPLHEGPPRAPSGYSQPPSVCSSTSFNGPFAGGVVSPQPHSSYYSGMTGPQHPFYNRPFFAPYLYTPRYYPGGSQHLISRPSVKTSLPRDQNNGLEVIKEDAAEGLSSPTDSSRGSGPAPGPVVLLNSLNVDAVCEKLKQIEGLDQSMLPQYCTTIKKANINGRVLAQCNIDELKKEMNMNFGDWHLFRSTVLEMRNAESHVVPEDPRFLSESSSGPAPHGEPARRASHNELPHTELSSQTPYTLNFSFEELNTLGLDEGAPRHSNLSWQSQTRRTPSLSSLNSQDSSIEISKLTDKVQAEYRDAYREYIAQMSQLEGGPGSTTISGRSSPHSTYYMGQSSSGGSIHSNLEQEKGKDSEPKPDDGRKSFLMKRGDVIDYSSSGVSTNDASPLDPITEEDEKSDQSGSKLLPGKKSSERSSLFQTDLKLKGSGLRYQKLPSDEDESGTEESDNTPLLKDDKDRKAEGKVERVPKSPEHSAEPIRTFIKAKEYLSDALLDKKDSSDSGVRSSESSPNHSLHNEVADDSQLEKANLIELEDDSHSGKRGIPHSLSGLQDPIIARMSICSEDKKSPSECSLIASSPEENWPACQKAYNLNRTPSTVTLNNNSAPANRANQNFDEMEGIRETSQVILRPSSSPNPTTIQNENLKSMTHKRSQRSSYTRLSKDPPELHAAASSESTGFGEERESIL
UniProt Q9UBK8: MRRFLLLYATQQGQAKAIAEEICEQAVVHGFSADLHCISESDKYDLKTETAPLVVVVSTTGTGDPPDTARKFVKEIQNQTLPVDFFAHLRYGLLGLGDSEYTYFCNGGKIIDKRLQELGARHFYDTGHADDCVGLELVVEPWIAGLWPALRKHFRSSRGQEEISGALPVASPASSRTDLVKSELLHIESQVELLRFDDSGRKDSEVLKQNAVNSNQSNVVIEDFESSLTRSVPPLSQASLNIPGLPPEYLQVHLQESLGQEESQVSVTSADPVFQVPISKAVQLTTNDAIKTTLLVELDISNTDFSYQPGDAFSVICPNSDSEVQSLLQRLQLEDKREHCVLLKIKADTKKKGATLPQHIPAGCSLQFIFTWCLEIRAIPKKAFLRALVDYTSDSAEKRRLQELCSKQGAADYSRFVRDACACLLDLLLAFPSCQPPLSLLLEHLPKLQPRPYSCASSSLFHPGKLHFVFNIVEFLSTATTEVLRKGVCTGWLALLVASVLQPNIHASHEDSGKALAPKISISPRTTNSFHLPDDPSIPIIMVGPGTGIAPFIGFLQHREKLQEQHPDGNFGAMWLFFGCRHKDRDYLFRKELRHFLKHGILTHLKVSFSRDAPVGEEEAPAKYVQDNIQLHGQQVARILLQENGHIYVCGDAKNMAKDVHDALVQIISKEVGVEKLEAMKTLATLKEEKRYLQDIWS
UniProt Q9UIQ6, whole entry: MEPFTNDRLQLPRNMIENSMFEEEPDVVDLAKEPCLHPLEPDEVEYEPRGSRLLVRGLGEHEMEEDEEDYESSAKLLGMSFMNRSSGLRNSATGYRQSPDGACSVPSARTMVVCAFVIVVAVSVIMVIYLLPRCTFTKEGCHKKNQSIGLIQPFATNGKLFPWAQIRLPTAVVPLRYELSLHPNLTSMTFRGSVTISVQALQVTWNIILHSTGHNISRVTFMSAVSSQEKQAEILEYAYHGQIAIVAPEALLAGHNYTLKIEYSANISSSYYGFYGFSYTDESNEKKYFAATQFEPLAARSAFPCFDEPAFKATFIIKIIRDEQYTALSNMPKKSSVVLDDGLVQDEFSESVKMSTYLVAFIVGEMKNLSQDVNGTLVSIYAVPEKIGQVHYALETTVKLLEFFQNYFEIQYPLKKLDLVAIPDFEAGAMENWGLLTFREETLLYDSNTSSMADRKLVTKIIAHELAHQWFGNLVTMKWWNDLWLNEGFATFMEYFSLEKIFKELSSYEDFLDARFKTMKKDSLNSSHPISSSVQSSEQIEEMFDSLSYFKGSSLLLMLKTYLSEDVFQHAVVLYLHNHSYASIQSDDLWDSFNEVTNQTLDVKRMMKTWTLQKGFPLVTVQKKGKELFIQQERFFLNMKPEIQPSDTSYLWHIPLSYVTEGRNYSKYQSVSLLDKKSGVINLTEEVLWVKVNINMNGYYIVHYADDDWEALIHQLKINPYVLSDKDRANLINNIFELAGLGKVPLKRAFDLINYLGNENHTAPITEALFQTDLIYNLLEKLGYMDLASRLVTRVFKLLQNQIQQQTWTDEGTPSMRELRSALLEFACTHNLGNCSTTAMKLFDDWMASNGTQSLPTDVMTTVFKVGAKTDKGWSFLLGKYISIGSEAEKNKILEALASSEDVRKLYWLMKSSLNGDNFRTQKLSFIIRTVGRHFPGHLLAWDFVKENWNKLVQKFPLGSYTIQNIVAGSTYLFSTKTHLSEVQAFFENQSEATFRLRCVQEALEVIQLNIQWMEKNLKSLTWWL
UniProt Q9UHB6: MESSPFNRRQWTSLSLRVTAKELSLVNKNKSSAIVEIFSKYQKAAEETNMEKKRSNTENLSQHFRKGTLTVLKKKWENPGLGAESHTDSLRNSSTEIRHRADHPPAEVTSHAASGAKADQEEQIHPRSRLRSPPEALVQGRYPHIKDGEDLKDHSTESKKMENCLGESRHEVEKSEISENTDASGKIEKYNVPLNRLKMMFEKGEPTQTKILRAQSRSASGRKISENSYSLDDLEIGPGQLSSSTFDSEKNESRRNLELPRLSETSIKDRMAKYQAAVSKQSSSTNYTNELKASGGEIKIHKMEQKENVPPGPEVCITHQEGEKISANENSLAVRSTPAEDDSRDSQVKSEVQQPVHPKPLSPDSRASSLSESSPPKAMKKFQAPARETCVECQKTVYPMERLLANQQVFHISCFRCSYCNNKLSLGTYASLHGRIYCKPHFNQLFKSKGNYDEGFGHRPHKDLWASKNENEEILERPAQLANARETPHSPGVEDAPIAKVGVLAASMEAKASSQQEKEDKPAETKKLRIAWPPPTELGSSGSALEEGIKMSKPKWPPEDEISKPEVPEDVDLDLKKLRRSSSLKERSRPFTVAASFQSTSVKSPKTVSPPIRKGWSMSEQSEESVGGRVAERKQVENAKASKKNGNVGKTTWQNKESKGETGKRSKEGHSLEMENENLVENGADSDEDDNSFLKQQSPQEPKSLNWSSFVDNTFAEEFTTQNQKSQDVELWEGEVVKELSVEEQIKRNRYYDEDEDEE
UniProt Q9Y224: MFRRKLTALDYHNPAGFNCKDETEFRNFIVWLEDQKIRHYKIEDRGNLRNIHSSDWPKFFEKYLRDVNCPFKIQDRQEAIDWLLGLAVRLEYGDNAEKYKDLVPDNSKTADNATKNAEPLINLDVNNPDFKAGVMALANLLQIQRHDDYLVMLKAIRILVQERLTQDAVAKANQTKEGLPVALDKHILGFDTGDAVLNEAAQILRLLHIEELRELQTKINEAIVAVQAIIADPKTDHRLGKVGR
UniProt Q9UG63: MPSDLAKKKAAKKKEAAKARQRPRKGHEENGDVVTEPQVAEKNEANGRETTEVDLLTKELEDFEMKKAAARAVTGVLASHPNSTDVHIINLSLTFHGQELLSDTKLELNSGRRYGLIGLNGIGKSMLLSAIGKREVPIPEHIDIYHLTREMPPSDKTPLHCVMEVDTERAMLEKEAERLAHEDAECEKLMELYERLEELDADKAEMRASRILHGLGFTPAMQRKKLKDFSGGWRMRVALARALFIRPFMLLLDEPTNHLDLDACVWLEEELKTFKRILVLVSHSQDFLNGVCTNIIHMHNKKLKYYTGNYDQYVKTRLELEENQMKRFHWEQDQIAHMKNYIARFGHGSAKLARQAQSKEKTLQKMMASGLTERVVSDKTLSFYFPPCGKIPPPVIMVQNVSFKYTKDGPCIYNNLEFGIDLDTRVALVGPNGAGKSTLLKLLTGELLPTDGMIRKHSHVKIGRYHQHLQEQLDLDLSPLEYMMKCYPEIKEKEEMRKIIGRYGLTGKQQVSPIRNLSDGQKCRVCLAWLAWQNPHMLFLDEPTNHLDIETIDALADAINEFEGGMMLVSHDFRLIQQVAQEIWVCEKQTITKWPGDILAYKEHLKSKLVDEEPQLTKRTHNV
UniProt Q9UNF0: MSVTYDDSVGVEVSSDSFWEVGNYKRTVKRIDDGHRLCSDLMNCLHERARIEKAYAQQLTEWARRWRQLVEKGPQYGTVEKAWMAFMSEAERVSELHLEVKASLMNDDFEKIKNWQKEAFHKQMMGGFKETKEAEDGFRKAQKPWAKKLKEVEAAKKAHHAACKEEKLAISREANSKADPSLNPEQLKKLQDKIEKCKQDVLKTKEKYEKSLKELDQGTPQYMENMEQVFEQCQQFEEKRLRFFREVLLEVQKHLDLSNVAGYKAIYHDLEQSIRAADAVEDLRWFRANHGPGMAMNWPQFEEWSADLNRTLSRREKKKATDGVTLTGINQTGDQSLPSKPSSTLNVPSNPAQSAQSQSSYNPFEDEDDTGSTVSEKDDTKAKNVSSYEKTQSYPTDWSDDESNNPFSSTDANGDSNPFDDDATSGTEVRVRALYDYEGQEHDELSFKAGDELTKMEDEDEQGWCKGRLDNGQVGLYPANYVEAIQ
UniProt Q9UHW5, whole entry: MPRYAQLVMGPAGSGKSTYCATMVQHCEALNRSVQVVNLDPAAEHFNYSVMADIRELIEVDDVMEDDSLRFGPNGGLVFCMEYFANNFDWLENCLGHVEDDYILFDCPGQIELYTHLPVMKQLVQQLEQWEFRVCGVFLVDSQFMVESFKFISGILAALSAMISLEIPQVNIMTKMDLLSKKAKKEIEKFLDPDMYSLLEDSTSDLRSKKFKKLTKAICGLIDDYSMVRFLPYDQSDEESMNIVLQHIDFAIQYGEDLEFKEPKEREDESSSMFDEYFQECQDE

Compound: Nc1ncnc2c1ncn2[C@@H]1O[C@H](COP(=O)(O)OP(=O)(O)OP(=O)(O)O)[C@@H](O)[C@H]1O [adenosine triphosphate]
Assay: NP40-soluble protein abundance relative to vehicle (solubility fold change) (ratio); higher = more soluble protein in presence of ATP
Procedure, shortened: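 Values are fold changes against the detergent-processed vehicle, based on vsn-normalised intensities. Jurkat crude lysate was treated at eight concentrations from 0.1 to 10 mM (10 min at room temperature, then 3 min at 37 °C), solubilised with 0.8% NP40 and benzonase, ultracentrifuged and analysed by TMT-labelled LC-MS/MS over three independent experiments.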

Target	NP40-soluble protein abundance (concentration: 0.1mM)	NP40-soluble protein abundance (concentration: 0.5mM)	NP40-soluble protein abundance (concentration: 1mM)	NP40-soluble protein abundance (concentration: 2mM)	NP40-soluble protein abundance (concentration: 4mM)	NP40-soluble protein abundance (concentration: 6mM)	NP40-soluble protein abundance (concentration: 8mM)	NP40-soluble protein abundance (concentration: 10mM)
UniProt Q9ULH0 and related entries	1.04 ± 0.038	0.999 ± 0.025						
UniProt Q9UBK8 and related entries	1.01 ± 0.064	0.994 ± 0.072	0.946 ± 0.042	1.01 ± 0.066	0.941 ± 0.058	0.97 ± 0.068	0.973 ± 0.028	0.978 ± 0.08
LNPEP (UniProt Q9UIQ6)	0.908 ± 0.037	0.915 ± 0.052	0.914 ± 0.015	0.937 ± 0.021	0.909 ± 0.022	0.918 ± 0.035	0.882 ± 0.045	0.872 ± 0.038
UniProt Q9UHB6 and related entries	0.801 ± 0.055	0.945 ± 0.071	1.05 ± 0.14	1.16 ± 0.14	1.35 ± 0.16	1.56 ± 0.21	1.62 ± 0.12	1.86 ± 0.18
UniProt Q9Y224	0.911 ± 0.076	0.842 ± 0.19	0.958 ± 0.053	0.872 ± 0.031	0.903 ± 0.092	0.918 ± 0.12	0.995 ± 0.011	0.782 ± 0.18
UniProt Q9UG63 and related entries	0.982 ± 0.021	0.9991 ± 0.0098	1.09 ± 0.033	1.15 ± 0.039	1.42 ± 0.019	1.67 ± 0.095	2.16 ± 0.093	2.59 ± 0.25
UniProt Q9UNF0 and related entries	1 ± 0.017	0.992 ± 0.054	0.963 ± 0.04	0.952 ± 0.024	0.927 ± 0.011	0.954 ± 0.023	0.895 ± 0.019	0.9 ± 0.049
UniProt Q9UHW5 and related entries	1.06 ± 0.092	1.04 ± 0.12						
